From patent US8541670B2, “Compositions and methods for inhibiting tumor cell growth” (priority 2007, dated 2013)
For some of these results: Not every detail of the peptide structures is certain; ends, links or a residue may be inferred. For some of these results: At least one structure is not confirmed: it was looked up by name or label, or the drawing left a doubt. Where no end group is shown, it is not given here.

Tests used:
N2a cells = assay: MTT cell proliferation assay; format: cell-based; settings: 10 μM, 48-hour treatment (FIG. 3, series 1)
Method: In histogram series 2, treatments were removed after 24 hours and cells were incubated for another 24 hours without treatment. […] Mitochondrial activity (reflecting cellular growth and viability) in the presence of ZaTa and ZaTa variants (ZaTa T10D, ZaTa T8D, ZaTa T14R, and ZaTa Y17T) was evaluated by measuring the optical density (“OD”) at 490 nm on a plate reader. ZaTa T10D refers to a ZaTa polypeptide variant in which the Threonine (T) at position 10 of SEQ ID NO: 60 is substituted by an Aspartic Acid (D). ZaTa T8D refers to a ZaTa polypeptide variant in which the Threonine (T) at position 8 of SEQ ID NO: 60 is substituted by an Aspartic Acid (D). ZaTa T14R refers to a ZaTa polypeptide variant in which the Threonine (T) at position 14 of SEQ ID NO: 60 is substituted by an Arginine (R). ZaTa Y17T refers to a ZaTa polypeptide variant in which the Tyrosine (Y) at position 17 of SEQ ID NO: 60 is substituted by an Threonine (T).
AKT affects a network that positively regulates G1/S cell cycle progression through several mechanisms that involve the expression and subcellular localization of the CDK inhibitor p27^Kip1 (Blain and Massague (2002) Nat. Med. 8:1076-1078; Liang, et al. (2002) supra; Shin, et al. (2002) supra; Viglietto, et al. (2002) supra). Based on these studies, the effect of ZaTa peptide on cell proliferation was assessed. […]
Based on the importance of the C-terminal arm of ZaTa for its inhibitory action on AKT, it was determined whether the free hydroxyl groups on residues Thr-8, Thr-10 (equivalent to Thr-197 in full-length PKAc), Thr-14 and Tyr-17 were important for the biological activity of this peptide. […]
Cells (5×10^3) were incubated in 96-well plates in the presence of different concentrations of the ZaTa peptide, control peptide or DMSO as vehicle. […] The activity of the mitochondria, reflecting cellular growth and viability, was evaluated by measuring the optical density at 490 nm on a plate reader.

AKT = AKT activity in cultured neurons treated with PKA inhibitor or activator; format: cell-based
Method: To evaluate the significance of the AKT-PKAc interaction, kinase inhibitors were employed. […] Thus, cultured neurons were treated with the selective PKA inhibitor, H-89, and the potent PKA activator, forskolin, and AKT activity was analyzed.

Row | Compound | effect of mutation on inhibition of cell proliferation relative to ZaTa (N2a cells) | activity of AKT, phosphorylation level at Thr-308 and Ser-473 (AKT)
1 | AKRVKGRTWDLCGTPEY [ZaTa^T10D] | significantly diminished the inhibitory effect | –
2 | AKRVKGRTWTLCGRPEY [ZaTa^T14R] | considerably augmented ZaTa activity | –
3 | C=C[C@@]1(C)CC(=O)[C@]2(O)[C@@]3(C)[C@@H](O)CCC(C)(C)[C@@H]3[C@H](O)[C@H](OC(C)=O)[C@@]2(C)O1 [forskolin] | – | opposing effect
4 | AKRVKGRDWTLCGTPEY [ZaTa^T8D] | significantly diminished the inhibitory effect | –
